Measurements reported in PMC7819943, “Rice protein-binding microarrays: a tool to detect cis-acting elements near promoter regions in rice”.
This is one part of the list.

target: T1, OsSMF1 (Oryza sativa, UniProt Q6ZLB0 1-436); assay: protein-binding microarray (RPBM); PBS, 2% BSA, 51.3 ng/ul salmon testes DNA, 50 uM zinc acetate, 200 nM TF, 25 C, 1 h; high values mean tight binding; conditions: protein: recombinant; tags: N-terminal polyhistidine and DsRed monomer fusion (pET32a); chain copies: 2; label: CyDye5-dUTP incorporated in the synthesized complementary strand; 3' TTTTT single-stranded linker to array surface; dsDNA, one strand shown
T1 sequence: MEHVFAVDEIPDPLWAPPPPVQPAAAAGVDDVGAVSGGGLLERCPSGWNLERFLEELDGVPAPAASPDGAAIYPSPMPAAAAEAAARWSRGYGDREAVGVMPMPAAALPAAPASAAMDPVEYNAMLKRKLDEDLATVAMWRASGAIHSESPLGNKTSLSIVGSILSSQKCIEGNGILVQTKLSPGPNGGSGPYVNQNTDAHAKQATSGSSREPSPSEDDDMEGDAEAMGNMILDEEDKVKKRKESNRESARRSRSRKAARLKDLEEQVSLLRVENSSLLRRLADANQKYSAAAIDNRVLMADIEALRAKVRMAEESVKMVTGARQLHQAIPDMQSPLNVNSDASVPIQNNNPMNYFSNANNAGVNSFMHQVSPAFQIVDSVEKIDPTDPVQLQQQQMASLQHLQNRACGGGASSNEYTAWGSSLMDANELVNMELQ
Method in brief: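 Transcription factors were each fused at the N-terminus to a polyhistidine tag plus DsRed and expressed in E. coli BL21-CodonPlus before Ni–NTA purification. Binding to a double-stranded custom Agilent array was carried out with 200 nM protein at 25 °C for 1 h in PBS, 2% BSA, salmon testes DNA and 50 µM zinc acetate. The binding signal is per-feature fluorescence intensity, in arbitrary units, on an Axon 4000B scanner.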

| Sequence | binding signal |
| --- | --- |
| TTGTCAGCTTCTACACGGACATATGTCACAGTGCTTCACGCGGAGTCACCTAGTGCAG | 3750 fluorescence intensity (a.u.) |
| TTGGCTTCTTCAACTTACGTTACCCAATGCATTATATTTGCGGAGTCACCTAGTGCAG | 4300 fluorescence intensity (a.u.) |
| TTGTCTCCCATGCCTATGTCATCCATACAACGTTACTTCACGGAGTCACCTAGTGCAG | 5610 fluorescence intensity (a.u.) |
| CAGAATAATCATTTGTCATCAATGTGTGCTGTGTGGTGGTCGGAGTCACCTAGTGCAG | 3360 fluorescence intensity (a.u.) |
| CATCTGCGAGGTCATCAAAACCCTACCCGAGCGGCCACACCGGAGTCACCTAGTGCAG | 3420 fluorescence intensity (a.u.) |
| TACCCTTTGCCGACTGTTGGCGTGAAGGCAATTGTTTTGTCGGAGTCACCTAGTGCAG | 3140 fluorescence intensity (a.u.) |
| TAGGGTGCCCATCAATTAGTTTGATTAATTACAAGGCAGCCGGAGTCACCTAGTGCAG | 5120 fluorescence intensity (a.u.) |
| CCTCTCGCCGCCGCCGCCGCGCCATTGCCGGATTTCACCCCGGAGTCACCTAGTGCAG | 4120 fluorescence intensity (a.u.) |
| GCAGGCAGATAAAACGTACACTCCACAGCTCACACCTTCCCGGAGTCACCTAGTGCAG | 3480 fluorescence intensity (a.u.) |
| GTCGCACCTCGCAGCACACGCGTCAGCACCTCGACCCAACCGGAGTCACCTAGTGCAG | 7480 fluorescence intensity (a.u.) |
| AAACAAGATCGTCGGCTCCCCGCCCTATCCACGAGTCCACCGGAGTCACCTAGTGCAG | 3210 fluorescence intensity (a.u.) |
| CATTGCACAGGAAGCATGAAATTTAACTTCTGGAGTTTGGCGGAGTCACCTAGTGCAG | 18600 fluorescence intensity (a.u.) |
| TCTTCTGAATGCTCACAATGACGCCATCCTCATCAGCCGCCGGAGTCACCTAGTGCAG | 4480 fluorescence intensity (a.u.) |
| CACAACTAGAGCATGGAATTACACTATGGCTATGTTTAGACGGAGTCACCTAGTGCAG | 20900 fluorescence intensity (a.u.) |
| TGACATGTGGGACCCACGTGGGTCCCTCGCTGACTCAGCCCGGAGTCACCTAGTGCAG | 17900 fluorescence intensity (a.u.) |
| CTCATTTCGTGCAGTTGAGAAGCTCATCCAAACATCCATACGGAGTCACCTAGTGCAG | 3960 fluorescence intensity (a.u.) |
| CTATGTGATGTGTATTTGTGAGTAGGACTACACAGCGAAACGGAGTCACCTAGTGCAG | 6020 fluorescence intensity (a.u.) |
| AAGCATCATCACTGTCGCTGTCATCAATCATTGTCACTTACGGAGTCACCTAGTGCAG | 4630 fluorescence intensity (a.u.) |
| AGATGCAATATGTGTATGACAGGTGAGACCATATATTAACCGGAGTCACCTAGTGCAG | 25000 fluorescence intensity (a.u.) |
| CGGATCAAACTGATCAACGACAGATAGTTATGCCACGTCACGGAGTCACCTAGTGCAG | 15700 fluorescence intensity (a.u.) |
| TCCTCGCCGACGACGGCTTTCCCCTCACGCTCTCCCGTACCGGAGTCACCTAGTGCAG | 3590 fluorescence intensity (a.u.) |

| Sequence | binding signal |
| --- | --- |
| AAGAACTAGTGTAGCAAGGACAACAATGCCAAGAGCAAAACGGAGTCACCTAGTGCAG | 10000 fluorescence intensity (a.u.) |
| CCGTCACGGATGACACTTATCTGTGACGGGCTATAGTTGACGGAGTCACCTAGTGCAG | 4260 fluorescence intensity (a.u.) |
| TGCTTCTCCAAGAACTCGCTCTGCCGCGAGCTTCTGCAGTCGGAGTCACCTAGTGCAG | 3610 fluorescence intensity (a.u.) |
| TAAATGGGGTAGGTAAAGAAGATGACATTGATGAGATCAGCGGAGTCACCTAGTGCAG | 3510 fluorescence intensity (a.u.) |
| AGAGGGCGTGTACTCGTGACATCGTGTGTGTGCGTGTGCGCGGAGTCACCTAGTGCAG | 6670 fluorescence intensity (a.u.) |
| TACAAATATTCAGACCGCTATGATTGGTGAATTTGTGGATCGGAGTCACCTAGTGCAG | 3660 fluorescence intensity (a.u.) |
| GAAAGAAGAGATCGGGAATAACAAATAAGCTCAGATATATCGGAGTCACCTAGTGCAG | 5780 fluorescence intensity (a.u.) |
| GATAATCCGATATCACTCTCGCCACGCCAGACGCCACCTACGGAGTCACCTAGTGCAG | 7800 fluorescence intensity (a.u.) |
| GAGAGAGAGAGGGGACCAACTGAAAAGAGAGAGAAGCTAGCGGAGTCACCTAGTGCAG | 31200 fluorescence intensity (a.u.) |
| CGAGATGCCCTGCGCGTGGCATTTTATATTTTATTACTGCCGGAGTCACCTAGTGCAG | 3680 fluorescence intensity (a.u.) |
| GTCTTCATCATCAAGTTTCACATCTAACTTACTTAGATCCCGGAGTCACCTAGTGCAG | 3390 fluorescence intensity (a.u.) |
| CCGTCTTCTTCCTCCACGTTCCTATCCATGGCGCCAGTTCCGGAGTCACCTAGTGCAG | 41400 fluorescence intensity (a.u.) |
| GAGGGAGTAATTGCTAGTGGATGATGATGTGACATGCTTGCGGAGTCACCTAGTGCAG | 3950 fluorescence intensity (a.u.) |
| GCAAACTAAGCATGTAAGATGACGTCATCAGTTGATGAATCGGAGTCACCTAGTGCAG | 13500 fluorescence intensity (a.u.) |
| TTTAATTTATGTTGGGTGGACGTGGATGCGCATGATGAGCCGGAGTCACCTAGTGCAG | 4780 fluorescence intensity (a.u.) |
| TTCATTGACCGAGAACGATAGCACGCATCACATCAGCATCCGGAGTCACCTAGTGCAG | 3250 fluorescence intensity (a.u.) |
| GGTCCCGTCAGGGAAGGACCCCACGTCCTCGGTTCCATTCCGGAGTCACCTAGTGCAG | 3910 fluorescence intensity (a.u.) |
| CCCTGGATTTCCGTGCCAACGTTTGACTGTCCGTCTTATACGGAGTCACCTAGTGCAG | 4290 fluorescence intensity (a.u.) |
| TAGATGTTACTCCCTCCGTCCCTTCGTCCTAAAATGTAGCCGGAGTCACCTAGTGCAG | 35900 fluorescence intensity (a.u.) |
| CTGCTACATGTGGCCGGTCGGTTGCAATGGTTGTAATTATCGGAGTCACCTAGTGCAG | 3220 fluorescence intensity (a.u.) |
| GGTGGTAATCTTGTGATGTGACTCAGGAATGGCGCACAAACGGAGTCACCTAGTGCAG | 6750 fluorescence intensity (a.u.) |

Given with bars between the fields: entries from further up.
Sequence | binding signal
TTGGCTTCTTCAACTTACGTTACCCAATGCATTATATTTGCGGAGTCACCTAGTGCAG | 4300 fluorescence intensity (a.u.)
GCAGGCAGATAAAACGTACACTCCACAGCTCACACCTTCCCGGAGTCACCTAGTGCAG | 3480 fluorescence intensity (a.u.)
CATTGCACAGGAAGCATGAAATTTAACTTCTGGAGTTTGGCGGAGTCACCTAGTGCAG | 18600 fluorescence intensity (a.u.)
TCTTCTGAATGCTCACAATGACGCCATCCTCATCAGCCGCCGGAGTCACCTAGTGCAG | 4480 fluorescence intensity (a.u.)
TGACATGTGGGACCCACGTGGGTCCCTCGCTGACTCAGCCCGGAGTCACCTAGTGCAG | 17900 fluorescence intensity (a.u.)
CTCATTTCGTGCAGTTGAGAAGCTCATCCAAACATCCATACGGAGTCACCTAGTGCAG | 3960 fluorescence intensity (a.u.)
TCCTCGCCGACGACGGCTTTCCCCTCACGCTCTCCCGTACCGGAGTCACCTAGTGCAG | 3590 fluorescence intensity (a.u.)
AAGAACTAGTGTAGCAAGGACAACAATGCCAAGAGCAAAACGGAGTCACCTAGTGCAG | 10000 fluorescence intensity (a.u.)
AGAGGGCGTGTACTCGTGACATCGTGTGTGTGCGTGTGCGCGGAGTCACCTAGTGCAG | 6670 fluorescence intensity (a.u.)
TAGATGTTACTCCCTCCGTCCCTTCGTCCTAAAATGTAGCCGGAGTCACCTAGTGCAG | 35900 fluorescence intensity (a.u.)
